Taken from: PubChem BioAssay AID1159618 (Peter MacCallum Cancer Centre, 2016)

- Assay: 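Contrast migration regulators of blood versus lymphatic endothelial cells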 (follow-up of hits)
- Cell system: human HMBEC blood microvascular and HDLEC dermal lymphatic endothelial cells
- Reagents: siRNA pool against human genes, 40 nM
- Measured: 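Automated imaging of scratched monolayers; area filled by migrating cells relative to the mean of mock-transfected wells, averaged over two replicates; nuclei also counted per well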
- Scale: migration vs mock, HMBEC and migration vs mock, HDLEC: higher = more migration into the scratch; nuclei count, HMBEC and nuclei count, HDLEC: higher = more cells
- Rule for the call: 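Called impaired when migration drops below 0.65 of mock in HMBEC, HDLEC or both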
- Calls: active = migration impaired; inactive = no change
This is one part, drawn at random, of 153 reagents. 111 of all reagents (73%) count as active. 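Migration not corrected for cell number; some knock-downs also lowered nuclei counts, so reduced closure may partly reflect fewer cells.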 Entries without a mark were called inactive. No sequences are given here. The record does not give: the time to read-out.

| target gene | cell type with impaired migration | migration vs mock, HMBEC | migration vs mock, HDLEC | nuclei count, HMBEC | nuclei count, HDLEC |
| --- | --- | --- | --- | --- | --- |
| ZNF76 | impaired in both blood and lymphatic cells (active) | 0.383 | -0.0574 | 3926 | 5354 |
| UGT1A7 | impaired in both blood and lymphatic cells (active) | 0.25 | 0.137 | 2462 | 4068 |
| APOBEC3D | impaired in both blood and lymphatic cells (active) | 0.549 | 0.574 | 3734 | 5235 |
| TFAP2C | impaired in both blood and lymphatic cells (active) | 0.482 | 0.426 | 2844 | 4020 |
| MYL7 | impaired only in blood endothelial cells (active) | 0.548 | 0.749 | 3745 | 5168 |
| ITPKA | impaired only in lymphatic endothelial cells (active) | 0.738 | 0.493 | 4764 | 6257 |
| LYPLA2 | impaired only in lymphatic endothelial cells (active) | 0.763 | 0.464 | 5882 | 7302 |
| AXL | no change in either cell type | 0.762 | 0.938 | 4538 | 6585 |
| FLG2 | impaired in both blood and lymphatic cells (active) | 0.462 | 0.536 | 2865 | 5017 |
| NFATC4 | impaired in both blood and lymphatic cells (active) | 0.637 | 0.37 | 4386 | 5755 |
| MESP2 | impaired in both blood and lymphatic cells (active) | 0.536 | 0.585 | 3754 | 4876 |
| SLC31A2 | impaired only in lymphatic endothelial cells (active) | 0.7 | 0.266 | 3373 | 4546 |
| USP25 | impaired in both blood and lymphatic cells (active) | 0.276 | 0.288 | 2484 | 4352 |
| CMTM8 | impaired only in blood endothelial cells (active) | 0.508 | 0.778 | 4087 | 6969 |
| GBA1 | no change in either cell type | 0.763 | 0.721 | 4616 | 6446 |
| GPR152 | impaired in both blood and lymphatic cells (active) | 0.116 | 0.107 | 2584 | 3820 |
| ETNK2 | impaired in both blood and lymphatic cells (active) | 0.534 | 0.475 | 3617 | 5650 |
| TNFRSF1B | impaired in both blood and lymphatic cells (active) | 0.253 | 0.253 | 2805 | 4644 |
| SLC26A11 | impaired only in lymphatic endothelial cells (active) | 0.662 | 0.446 | 4576 | 5873 |
| GNAS | impaired in both blood and lymphatic cells (active) | 0.493 | 0.177 | 3061 | 4565 |
| PLB1 | impaired only in blood endothelial cells (active) | 0.442 | 0.658 | 2890 | 4879 |
| AKR1C6P | no change in either cell type | 0.787 | 0.8 | 4167 | 6378 |
| RTL8C | no change in either cell type | 0.776 | 0.87 | 3882 | 6196 |
| PRKG2 | no change in either cell type | 0.701 | 0.783 | 4137 | 6058 |
| FBXW11 | impaired in both blood and lymphatic cells (active) | 0.628 | 0.577 | 4245 | 5980 |
| AOC3 | no change in either cell type | 0.815 | 0.754 | 4777 | 6587 |
| CHST5 | impaired only in blood endothelial cells (active) | 0.535 | 0.676 | 3372 | 5428 |
| ISL2 | no change in either cell type | 0.798 | 0.99 | 2990 | 5492 |
| PRKD3 | no change in either cell type | 0.723 | 0.71 | 4225 | 6096 |
| SELPLG | impaired in both blood and lymphatic cells (active) | 0.226 | 0.556 | 3240 | 4977 |
| RTKN | no change in either cell type | 0.681 | 0.694 | 3731 | 5810 |
| FMC1 | impaired in both blood and lymphatic cells (active) | -0.199 | 0.248 | 1911 | 3986 |
| MIEF1 | impaired only in lymphatic endothelial cells (active) | 0.737 | 0.632 | 3494 | 5878 |
| SCGB1C1 | impaired in both blood and lymphatic cells (active) | 0.632 | 0.342 | 3653 | 6060 |
| RAD21 | impaired only in lymphatic endothelial cells (active) | 0.795 | 0.582 | 3473 | 5823 |
| SEPTIN4 | impaired in both blood and lymphatic cells (active) | 0.266 | 0.0189 | 2570 | 4639 |
